{
  "sequences": {"note": "Sequences of proteins named here, by UniProt entry; tags and fusion partners are left off.", "UniProt P27695, whole entry, looked up": "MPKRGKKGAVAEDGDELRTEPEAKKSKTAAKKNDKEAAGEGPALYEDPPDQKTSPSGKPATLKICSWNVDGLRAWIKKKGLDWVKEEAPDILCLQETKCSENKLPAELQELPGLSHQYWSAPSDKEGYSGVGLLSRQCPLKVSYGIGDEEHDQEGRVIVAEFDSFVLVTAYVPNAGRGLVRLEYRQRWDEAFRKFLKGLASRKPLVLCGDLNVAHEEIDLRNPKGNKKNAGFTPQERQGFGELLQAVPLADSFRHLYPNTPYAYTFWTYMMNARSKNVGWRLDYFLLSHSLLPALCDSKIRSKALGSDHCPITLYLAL"},
  "source": "PubChem BioAssay AID2517",
  "about": "(National Center for Advancing Translational Sciences (NCATS), 2010)",
  "note": "Among all 350,000 compounds or so, about 1,200 (0.34%) were called active. Inconclusive means that the source gave no clear call. Such entries were picked first, then a sample of the others. Calls come from the whole dose curve; as a rule, active = well fitted inhibition curve with a large enough effect; inconclusive = small, poorly fitted or top-dose-only effect; inactive = no such curve, though single readings can be large or run the other way. Where the call is inconclusive, the potency comes from a doubtful curve fit. Potency is the fitted concentration of half-maximal effect.",
  "data": [
    {"molecular_target": "DNA repair nuclease/redox regulator APEX1 (Homo sapiens) (UniProt P27695)", "test": "qHTS Assay for Inhibitors of the Human Apurinic/apyrimidinic Endonuclease 1 (APE1); note: nearly all actives have a fitted effect of over 55% in size", "settings": "recombinant APE1, TAMRA/BHQ-2 abasic DNA cleavage fluorescence; series mostly up to 65.8 µM", "how_it_was_run": "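APE1 at 0.75 nM preincubated 15 min at room temperature with compound. Reaction then started with 50 nM double-stranded THF-abasic substrate labelled with TAMRA/BHQ-2, and 525/598 nm fluorescence read kinetically. Activity taken as third-minus-first read difference, normalized to DMSO and NSC13755 controls.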", "values": [
      {"smiles": "NNC(=O)c1ccc(CSc2n[nH]c(=O)[nH]c2=O)cc1", "Potency": "inconclusive: 39.8 µM [inhibitor, single point]"},
      {"smiles": "Cc1cc(NS(=O)(=O)c2ccc(NC(=O)C(F)(F)F)cc2)nc(C)n1", "Potency": "inactive"},
      {"smiles": "Cc1ccc2c(c1)-c1[nH]c(=S)ncc1CS2", "Potency": "inconclusive: 31.6 µM [inhibitor, single point]"},
      {"smiles": "O=C(N/N=C/c1sc2ccccc2c1O)c1cccc2ccccc12", "Potency": "inconclusive: 0.794 µM [inhibitor, full curve]"},
      {"smiles": "O=C1N(c2ccccc2)c2ccccc2C1(Cc1ccncc1)Cc1ccncc1", "Potency": "inconclusive: 44.7 µM [inhibitor, single point]"},
      {"smiles": "CCOC(=O)[C@H](CCc1ccccc1)N[C@@H](C)C(=O)N1CCC[C@@H]1C(=O)O", "Potency": "inactive"},
      {"smiles": "[O-]c1c[n+](-c2ccc(-[n+]3cc([O-])on3)cc2)no1", "Potency": "inactive"},
      {"smiles": "Cc1cc(C)cc(CSCC(=O)N/N=C/c2ccc(OCC(=O)NCc3ccco3)cc2)c1", "Potency": "inactive"},
      {"smiles": "Cc1ccc(N2CC(C(=O)Nc3ccc(S(=O)(=O)Nc4nccs4)cc3)CC2=O)cc1", "note": "(stereo not drawn)", "Potency": "inconclusive: 44.7 µM [inhibitor, single point]"},
      {"smiles": "COC(=O)c1ccc(Oc2nc(NC(C)C)nc(NC(C)C)n2)cc1", "Potency": "inconclusive: 28.2 µM [inhibitor, partial curve]"},
      {"smiles": "Nc1ccc(C(=O)OCC(=O)NC2CCS(=O)(=O)C2)cc1[N+](=O)[O-]", "note": "(stereo not drawn)", "Potency": "inconclusive: 35.5 µM [inhibitor, single point]"},
      {"smiles": "CCNc1ccc(Br)cc(C(=O)/C=C/c2ccc3c(c2)OCO3)c1=O", "Potency": "inconclusive: 35.5 µM [inhibitor, single point]"},
      {"smiles": "COC(=O)[C@@]1(Cc2ccc(OC)cc2)[C@H]2c3cc(C(=O)N4CCCC4)n(CCN4CCNC4=O)c3C[C@H]2CN1C(=O)c1ccccc1", "Potency": "inconclusive: 4.47 µM [inhibitor, single point]"},
      {"smiles": "CCc1c(C)nc(N2CCOCC2)[nH]c1=O", "Potency": "inconclusive: 0.0224 µM [inhibitor, full curve, poor fit]"},
      {"smiles": "CC(C)[C@@H](CC(=O)N[C@@H]1CCCC[C@H]1C(=O)N[C@H](CC(=O)N[C@@H](CCC(=O)O)CC(=O)O)Cc1ccccc1)NC(=O)C[C@H](CO)NC(=O)[C@@H]1CNCC[C@H]1N", "Potency": "inactive"},
      {"smiles": "COc1ccc(C(=O)c2ccc(O)cc2)c(O)c1O", "Potency": "inconclusive: 3.55 µM [inhibitor, full curve]"},
      {"smiles": "COc1cc(CCN2C(=O)c3cccc4cccc(c34)C2=O)c(S(=O)(=O)NCCCO)cc1OC", "Potency": "inconclusive: 8.91 µM [inhibitor, single point]"},
      {"smiles": "COc1ccc(NC(=O)c2sc3nc(N4CCOCC4)c4c(c3c2N)CC(C(C)C)OC4)c(OC)c1", "note": "(stereo not drawn)", "Potency": "inactive"},
      {"smiles": "CCc1nnc(NC(=O)c2cc(-c3ccco3)nc3ccccc23)s1", "Potency": "inconclusive: 31.6 µM [inhibitor, partial curve]"},
      {"smiles": "COc1ccc(/C=N/NC(=O)c2cccnc2)cc1CSc1nc2ccccc2s1", "Potency": "inconclusive: 44.7 µM [inhibitor, single point]"},
      {"smiles": "O=C(CCCCCNC(=O)c1ccccc1)N/N=C/c1ccco1", "Potency": "inconclusive: 11.2 µM [inhibitor, partial curve]"},
      {"smiles": "CCOC(=O)c1c(O)c(O)c(C(=O)OCC)n1-c1ccccc1", "Potency": "inactive"},
      {"smiles": "CC(C)c1cccc2nc3c(c(C(C)(C)C)c12)Cn1c-3cccc1=O", "Potency": "inconclusive: 0.199 µM [inhibitor, full curve, poor fit]"},
      {"smiles": "CSC[C@H](NC(=O)Cc1c(C)c2cc3c(C)c(C)oc3cc2oc1=O)C(=O)N[C@@H](Cc1ccccc1)C(=O)O", "Potency": "inconclusive: 21.2 µM [inhibitor, single point]"},
      {"smiles": "O=C(O)c1cc(-c2ccc(/C=C3/SC(=S)N(Cc4ccccc4)C3=O)o2)ccc1Cl", "Potency": "inconclusive: 25.1 µM [inhibitor, single point]"},
      {"smiles": "CC(=O)NCCNc1ncnc2ccc(-c3ccoc3)cc12", "Potency": "inactive"},
      {"smiles": "CO[C@H]1COC(=O)[C@H](C)COC(=O)[C@H](C)NC(=O)C/C=C\\[C@H]1C", "Potency": "inconclusive: 5.01 µM [inhibitor, single point]"},
      {"smiles": "O=C1CC(/C=C/c2ccco2)=Nc2ccccc2N1", "Potency": "inconclusive: 31.6 µM [inhibitor, single point]"},
      {"smiles": "COC(=O)/C=C/c1ccc2c(c1)OCO2", "Potency": "inactive"},
      {"smiles": "O=C(NN1C(=O)/C(=C/C=C/c2ccco2)SC1=S)c1ccncc1", "Potency": "active: 4.47 µM"},
      {"smiles": "S=C(Nc1ccc(Cl)cc1)Nc1cccc2cnccc12", "Potency": "inactive"},
      {"smiles": "O=C(N/N=C/c1ccco1)c1cc(C2CC2)[nH]n1", "Potency": "inconclusive: 4.47 µM [inhibitor, single point]"},
      {"smiles": "CCN1CCC(=NNC(=O)c2ccc(C)c([N+](=O)[O-])c2)CC1", "Potency": "inconclusive: 39.8 µM [inhibitor, partial curve, poor fit]"},
      {"smiles": "O=C(O)CCCCCNS(=O)(=O)c1ccc2c3c(cccc13)C(=O)N2", "Potency": "inactive"},
      {"smiles": "CCCSc1nnc(NC(=O)Nc2ccc(C)cc2)s1", "Potency": "inconclusive: 3.16 µM [inhibitor, single point]"},
      {"smiles": "O=c1c2ccccc2nc(SCc2cn3ccsc3n2)n1-c1ccccc1", "Potency": "inconclusive: 44.7 µM [inhibitor, single point]"},
      {"smiles": "C#CCNC(=O)C1=C[C@H](c2ccc(C(F)(F)F)cc2)C[C@H](OCCCCO)O1", "Potency": "inconclusive: 0.0028 µM [inhibitor, full curve, poor fit]"},
      {"smiles": "O=C(OCC(=O)N1CCCC1)c1ccc(OC(F)(F)F)cc1", "Potency": "inconclusive: 0.631 µM [inhibitor, full curve, poor fit]"},
      {"smiles": "O=C(O)CN=C1CC(c2ccccc2)CC(=O)/C1=C(/O)CCCN1C(=O)c2ccccc2C1=O", "note": "(stereo not drawn)", "Potency": "inactive"},
      {"smiles": "COC(=O)CCCC(=O)N1CCCC(CCC(=O)NCc2ccc(F)c(F)c2)C1", "note": "(stereo not drawn)", "Potency": "inactive"},
      {"smiles": "O=[N+]([O-])c1cc([N+](=O)[O-])c2cccnc2c1Oc1ccccc1O", "Potency": "inactive"},
      {"smiles": "O=c1c2ccccc2oc2nc3n(c(=O)c12)CCCS3", "Potency": "inconclusive: 31.6 µM [inhibitor, single point]"},
      {"smiles": "O=C(O)c1ccccc1/C=N/NC(=O)c1cc(-c2ccco2)nc2ccccc12", "Potency": "active: 22.4 µM"},
      {"smiles": "O=C(Nc1cccc(F)c1)N1CC[C@@]2(CCCN(C(=O)c3csnn3)C2)C1", "Potency": "inactive"},
      {"smiles": "COc1ccc(C2CC(c3ccccc3)=NN2c2ccccc2)c(C(=O)O)c1OC", "note": "(stereo not drawn)", "Potency": "inactive"},
      {"smiles": "COc1ccc(-c2[nH]c3ccccc3c2SCCNC(=O)c2ccccc2)cc1", "Potency": "inconclusive: 4.47 µM [inhibitor, partial curve, poor fit]"},
      {"smiles": "Cc1cc(SCC(=O)c2cccc([N+](=O)[O-])c2)nc(=O)[nH]1", "Potency": "inactive"},
      {"smiles": "CC(=O)N/C(=C/c1ccc2c(c1)OCO2)C(=O)O", "Potency": "inconclusive: 44.7 µM [inhibitor, single point]"},
      {"smiles": "CC(C)Oc1ccc(CNC(=O)Cn2c(=O)oc3ccccc32)cc1", "Potency": "inconclusive: 39.8 µM [inhibitor, single point]"},
      {"smiles": "O=C(CCN1C(=O)C2C3CCC(C3)C2C1=O)Nc1ccc([N+](=O)[O-])cc1", "note": "(stereo not drawn)", "Potency": "inconclusive: 8.91 µM [inhibitor, single point]"},
      {"smiles": "O=C(Nc1ccc(O)c(-c2nc3ccccc3s2)c1)C1=COCCO1", "Potency": "inconclusive: 0.199 µM [inhibitor, full curve, poor fit]"},
      {"smiles": "COc1ccccc1NC(=S)N1CCN(c2ccccn2)CC1", "Potency": "inconclusive: 39.8 µM [inhibitor, single point]"},
      {"smiles": "O=C(O)c1ccccc1C(=O)NCCc1c(C(=O)O)[nH]c2ccc(Cl)cc12", "Potency": "inconclusive: 2.82 µM [inhibitor, full curve, poor fit]"},
      {"smiles": "CC(=O)OC[C@]12CC[C@H]3[C@@](C)(CC[C@H]4C(C)(C)CCC[C@]34C)[C@@H]1C[C@H](C1=CC(=O)O[C@@H]1OC(C)=O)O2", "Potency": "active: 13.4 µM"},
      {"smiles": "Cc1ccccc1OCC(O)Cn1c(NCc2ccco2)nc2c1c(=O)n(C)c(=O)n2C", "note": "(stereo not drawn)", "Potency": "inconclusive: 44.7 µM [inhibitor, single point]"},
      {"smiles": "COc1cccc(C(=O)COC(=O)c2ccc(NC(C)=O)cc2)c1", "Potency": "inconclusive: 44.7 µM [inhibitor, single point]"},
      {"smiles": "O=C(N/N=C/c1ccco1)c1ccc(C(=O)N/N=C/c2ccco2)o1", "Potency": "inconclusive: 31.6 µM [inhibitor, partial curve]"},
      {"smiles": "Cc1cc(N2CCCC2)n2nc(C)nc2n1", "Potency": "inconclusive: 7.94 µM [inhibitor, single point]"},
      {"smiles": "COc1cc(NCCCC(C)N)c2ncccc2c1", "note": "(stereo not drawn)", "Potency": "inconclusive: 20 µM [inhibitor, partial curve]"},
      {"smiles": "C/C=C/C(=O)C[C@H]1CC[C@@H](C)[C@@H](CCO)O1", "Potency": "inactive"},
      {"smiles": "CC(C)(C)c1ccc(C(=O)Nc2ccc(O)c3c(=O)cc(-c4cccc(Cl)c4)oc23)cc1", "Potency": "inconclusive: 3.16 µM [inhibitor, single point]"},
      {"smiles": "Cc1ccc(NC(=O)CS(=O)CC(=O)Nc2ccc3c(c2)OCO3)cc1Cl", "note": "(stereo not drawn)", "Potency": "inactive"},
      {"smiles": "COc1ccccc1C1C2=C(N=c3s/c(=C/c4cccc(OCC(=O)O)c4)c(=O)n31)c1ccccc1CC2", "note": "(stereo not drawn)", "Potency": "inactive"},
      {"smiles": "Cc1cc(C)n(C(=O)c2cccc(S(=O)(=O)N3CCCCC3)c2)n1", "Potency": "inconclusive: 35.5 µM [inhibitor, single point]"},
      {"smiles": "O=C(O)C1Cc2ccccc2CN1C(=O)CSc1nnc2ccccn12", "note": "(stereo not drawn)", "Potency": "inactive"},
      {"smiles": "CCn1c(/C=C/c2ccccc2[N+](=O)[O-])nc2ccccc2c1=O", "Potency": "inactive"},
      {"smiles": "CN(Cc1cccnc1)C(=O)c1ccc(Cl)c(NS(=O)(=O)c2ccc(F)cc2)c1", "Potency": "inactive"},
      {"smiles": "Cc1c(C(=O)O)cccc1-c1ccc(/C=C2/NC(=O)N(c3ccccc3)C2=O)o1", "Potency": "inconclusive: 39.8 µM [inhibitor, single point]"}
    ]}
  ]
}
